Among the data in paper PMC7064775, “Cyclic di-GMP Signaling in Bacillus subtilis Is Governed by Direct Interactions of Diguanylate Cyclases and Cognate Receptors” (mBio, 2020) are binding values, retold here.

No constants are given. Whether binding was seen depends on the method and setting. Tags and fused reporters may be left off the sequences shown.

The target of this assay is T1, GST-His6-DgcK-ΔN175 (Bacillus subtilis NCIB 3610, UniProt P54595 176-359).
T1 construct: Diguanylate cyclase DgcK of Bacillus subtilis NCIB 3610, soluble domain, residues 176 to 359 (construct pAT02a); also called pAT02a; source: E. coli BL21(DE3), purified (Ni-NTA, SEC); not shown: GST, N-terminal, kept; His6, N-terminal, kept
T1 sequence (looked up): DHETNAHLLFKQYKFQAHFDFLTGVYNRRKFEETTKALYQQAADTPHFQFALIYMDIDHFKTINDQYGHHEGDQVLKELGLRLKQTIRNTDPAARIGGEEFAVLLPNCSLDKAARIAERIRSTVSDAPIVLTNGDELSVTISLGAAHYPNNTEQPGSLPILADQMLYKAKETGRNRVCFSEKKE
The assay is described as follows: pull-down; 2 nmol GST-His6-DgcK-ΔN175 immobilised on glutathione-Sepharose 4B, 20 nmol His6-YdaK-ΔN111 or its R202A variant, with or without added c-di-GMP; 4°C, buffer A; Coomassie-stained SDS-PAGE; both purified.

B1: His6-YdaK-ΔN111_R202A (domain or fragment, UniProt P96585 112-283)
chain: DITAELRRSMTRLQSEIKSYVAVDRVTGFDNKQRMKLELSEEIKRAERYGNSFVFLLLHMHYFKEFKSLYGEKETDRLFQYVGQQIRTSVAETDKKFRPSDERIGIVLTHTPAEHMPAVLTKLKKQLDTYQLENGKYVSLTFHVCYLPYRNDIQTADQFLEELENEMMMNEL
B1: the binding entry is “no binding (tested: 20 nmol)”.
